Results published in PMC6895206.
No constants are given. Whether binding was seen depends on the method and setting. Binding seen in cells or lysates may run through a third protein. Some results given as binding are weak or reduced against the parent protein; the word gives no strength.

Chains of the proteins cited; added tags and fusions are not shown.
UniProt P97313: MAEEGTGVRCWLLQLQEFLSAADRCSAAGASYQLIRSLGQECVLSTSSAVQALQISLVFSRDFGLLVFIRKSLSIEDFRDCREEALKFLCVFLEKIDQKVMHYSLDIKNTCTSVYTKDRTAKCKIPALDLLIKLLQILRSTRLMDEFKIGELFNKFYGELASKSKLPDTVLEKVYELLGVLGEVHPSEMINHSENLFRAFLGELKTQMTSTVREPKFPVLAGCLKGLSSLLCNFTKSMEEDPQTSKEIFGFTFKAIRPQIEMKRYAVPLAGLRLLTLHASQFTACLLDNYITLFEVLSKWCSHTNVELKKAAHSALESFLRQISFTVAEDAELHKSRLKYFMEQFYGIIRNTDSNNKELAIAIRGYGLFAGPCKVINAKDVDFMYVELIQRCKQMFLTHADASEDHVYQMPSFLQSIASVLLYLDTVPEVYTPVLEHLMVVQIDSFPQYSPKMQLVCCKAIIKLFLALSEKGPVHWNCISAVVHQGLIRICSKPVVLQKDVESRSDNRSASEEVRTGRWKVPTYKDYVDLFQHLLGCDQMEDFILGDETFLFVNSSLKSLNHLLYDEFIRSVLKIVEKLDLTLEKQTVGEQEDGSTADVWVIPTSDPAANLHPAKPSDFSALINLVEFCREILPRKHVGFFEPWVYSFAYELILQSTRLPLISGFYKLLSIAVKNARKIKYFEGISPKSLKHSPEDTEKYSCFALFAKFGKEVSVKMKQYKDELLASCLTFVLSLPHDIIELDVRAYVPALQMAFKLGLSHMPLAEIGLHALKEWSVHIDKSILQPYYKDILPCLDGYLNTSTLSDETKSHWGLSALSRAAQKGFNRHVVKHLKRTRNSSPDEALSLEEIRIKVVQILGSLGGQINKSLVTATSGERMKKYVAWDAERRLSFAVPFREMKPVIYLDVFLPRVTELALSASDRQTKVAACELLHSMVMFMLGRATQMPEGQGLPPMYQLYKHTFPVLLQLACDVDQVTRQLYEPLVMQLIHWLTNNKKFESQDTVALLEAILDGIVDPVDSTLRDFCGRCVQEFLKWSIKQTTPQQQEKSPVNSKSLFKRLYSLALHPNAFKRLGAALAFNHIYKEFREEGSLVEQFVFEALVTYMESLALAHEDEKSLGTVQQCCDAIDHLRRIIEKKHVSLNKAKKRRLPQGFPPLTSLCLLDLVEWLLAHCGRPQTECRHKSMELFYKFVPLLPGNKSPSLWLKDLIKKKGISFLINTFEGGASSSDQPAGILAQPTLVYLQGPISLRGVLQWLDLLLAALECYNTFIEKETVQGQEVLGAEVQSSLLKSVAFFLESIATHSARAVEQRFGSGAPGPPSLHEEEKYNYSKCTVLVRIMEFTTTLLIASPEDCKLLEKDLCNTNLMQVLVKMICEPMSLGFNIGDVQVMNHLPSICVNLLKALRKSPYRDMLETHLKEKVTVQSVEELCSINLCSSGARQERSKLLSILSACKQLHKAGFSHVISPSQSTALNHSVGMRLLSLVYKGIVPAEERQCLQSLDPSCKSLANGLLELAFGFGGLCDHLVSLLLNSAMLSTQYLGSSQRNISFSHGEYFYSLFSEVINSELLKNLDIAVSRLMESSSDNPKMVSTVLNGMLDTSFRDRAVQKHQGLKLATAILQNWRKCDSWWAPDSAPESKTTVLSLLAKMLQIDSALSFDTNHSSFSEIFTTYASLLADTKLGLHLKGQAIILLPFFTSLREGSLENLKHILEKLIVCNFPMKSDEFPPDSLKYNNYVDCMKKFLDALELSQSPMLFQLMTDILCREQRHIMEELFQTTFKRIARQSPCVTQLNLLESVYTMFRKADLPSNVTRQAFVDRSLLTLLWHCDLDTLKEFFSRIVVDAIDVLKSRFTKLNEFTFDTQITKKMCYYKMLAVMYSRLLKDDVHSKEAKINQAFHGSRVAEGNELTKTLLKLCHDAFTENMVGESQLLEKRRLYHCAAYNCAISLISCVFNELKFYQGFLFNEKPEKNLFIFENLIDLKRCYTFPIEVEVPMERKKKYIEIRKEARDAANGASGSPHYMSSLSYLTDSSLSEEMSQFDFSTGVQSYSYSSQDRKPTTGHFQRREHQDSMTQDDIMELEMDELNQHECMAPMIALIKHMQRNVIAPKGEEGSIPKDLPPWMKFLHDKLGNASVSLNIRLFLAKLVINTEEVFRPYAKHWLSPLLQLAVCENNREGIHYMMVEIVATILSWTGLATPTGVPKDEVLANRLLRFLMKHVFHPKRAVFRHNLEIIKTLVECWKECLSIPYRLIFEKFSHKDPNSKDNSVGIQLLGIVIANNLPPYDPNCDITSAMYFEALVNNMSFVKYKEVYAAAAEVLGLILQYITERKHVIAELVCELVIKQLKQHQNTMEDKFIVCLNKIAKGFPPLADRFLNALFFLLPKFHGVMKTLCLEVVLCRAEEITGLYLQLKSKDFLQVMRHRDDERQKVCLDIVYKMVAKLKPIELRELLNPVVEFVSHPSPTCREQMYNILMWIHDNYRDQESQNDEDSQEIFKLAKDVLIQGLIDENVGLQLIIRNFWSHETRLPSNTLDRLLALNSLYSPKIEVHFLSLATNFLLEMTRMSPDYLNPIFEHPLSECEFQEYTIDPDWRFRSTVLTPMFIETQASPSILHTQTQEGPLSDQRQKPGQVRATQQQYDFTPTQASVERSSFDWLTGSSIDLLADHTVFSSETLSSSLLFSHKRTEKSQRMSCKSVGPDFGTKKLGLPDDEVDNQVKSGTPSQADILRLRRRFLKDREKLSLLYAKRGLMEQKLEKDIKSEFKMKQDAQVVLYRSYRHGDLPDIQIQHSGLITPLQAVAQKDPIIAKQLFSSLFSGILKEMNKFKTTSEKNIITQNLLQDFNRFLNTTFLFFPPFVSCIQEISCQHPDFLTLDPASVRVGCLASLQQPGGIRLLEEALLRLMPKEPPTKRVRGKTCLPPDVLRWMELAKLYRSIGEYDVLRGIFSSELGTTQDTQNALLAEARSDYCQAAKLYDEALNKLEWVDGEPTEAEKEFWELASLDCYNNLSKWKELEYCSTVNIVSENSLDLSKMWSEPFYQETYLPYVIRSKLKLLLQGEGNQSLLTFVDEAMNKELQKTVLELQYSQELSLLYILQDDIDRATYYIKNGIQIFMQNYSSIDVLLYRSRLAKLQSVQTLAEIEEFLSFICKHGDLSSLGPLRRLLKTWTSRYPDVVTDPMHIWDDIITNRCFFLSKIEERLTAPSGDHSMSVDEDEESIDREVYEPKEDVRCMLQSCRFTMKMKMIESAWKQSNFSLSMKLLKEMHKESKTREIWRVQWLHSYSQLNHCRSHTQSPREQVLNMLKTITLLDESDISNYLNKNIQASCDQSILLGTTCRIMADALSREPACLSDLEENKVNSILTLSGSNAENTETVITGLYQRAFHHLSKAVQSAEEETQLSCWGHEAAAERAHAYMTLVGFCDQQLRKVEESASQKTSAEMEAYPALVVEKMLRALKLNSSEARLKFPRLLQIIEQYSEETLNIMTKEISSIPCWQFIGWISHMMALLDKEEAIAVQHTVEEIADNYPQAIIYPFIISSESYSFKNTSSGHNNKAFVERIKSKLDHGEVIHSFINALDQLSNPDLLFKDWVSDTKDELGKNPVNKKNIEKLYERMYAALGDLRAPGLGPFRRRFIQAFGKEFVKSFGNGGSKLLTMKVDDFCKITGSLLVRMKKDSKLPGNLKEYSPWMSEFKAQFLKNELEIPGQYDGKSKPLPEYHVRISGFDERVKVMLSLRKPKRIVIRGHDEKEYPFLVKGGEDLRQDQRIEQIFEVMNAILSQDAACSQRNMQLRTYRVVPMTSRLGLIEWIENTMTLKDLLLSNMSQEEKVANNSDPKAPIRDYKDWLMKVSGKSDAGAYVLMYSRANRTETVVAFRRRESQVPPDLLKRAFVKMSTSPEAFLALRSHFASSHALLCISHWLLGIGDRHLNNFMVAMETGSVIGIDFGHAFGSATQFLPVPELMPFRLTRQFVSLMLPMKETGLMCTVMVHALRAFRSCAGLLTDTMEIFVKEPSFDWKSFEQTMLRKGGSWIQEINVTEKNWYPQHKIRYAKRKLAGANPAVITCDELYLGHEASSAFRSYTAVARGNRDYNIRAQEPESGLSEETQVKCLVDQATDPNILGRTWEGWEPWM
UniProt P27641: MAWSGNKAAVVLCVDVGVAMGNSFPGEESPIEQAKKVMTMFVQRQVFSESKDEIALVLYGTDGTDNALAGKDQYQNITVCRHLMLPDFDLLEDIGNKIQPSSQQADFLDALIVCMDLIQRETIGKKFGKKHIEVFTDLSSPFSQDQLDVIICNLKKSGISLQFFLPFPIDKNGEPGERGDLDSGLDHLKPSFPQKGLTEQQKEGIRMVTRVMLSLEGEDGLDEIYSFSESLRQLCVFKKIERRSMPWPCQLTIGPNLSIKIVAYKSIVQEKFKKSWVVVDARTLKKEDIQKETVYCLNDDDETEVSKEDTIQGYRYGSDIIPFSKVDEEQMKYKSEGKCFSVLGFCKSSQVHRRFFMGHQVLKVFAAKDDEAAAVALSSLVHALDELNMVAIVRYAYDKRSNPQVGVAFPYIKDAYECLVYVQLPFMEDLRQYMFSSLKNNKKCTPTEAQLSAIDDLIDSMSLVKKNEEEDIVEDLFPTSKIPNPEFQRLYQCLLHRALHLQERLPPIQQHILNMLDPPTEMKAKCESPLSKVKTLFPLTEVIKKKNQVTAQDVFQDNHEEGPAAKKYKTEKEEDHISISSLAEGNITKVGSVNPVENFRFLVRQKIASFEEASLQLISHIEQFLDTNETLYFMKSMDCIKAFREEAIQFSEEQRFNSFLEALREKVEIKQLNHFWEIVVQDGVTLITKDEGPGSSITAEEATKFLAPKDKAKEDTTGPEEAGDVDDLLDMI
UniProt P02340: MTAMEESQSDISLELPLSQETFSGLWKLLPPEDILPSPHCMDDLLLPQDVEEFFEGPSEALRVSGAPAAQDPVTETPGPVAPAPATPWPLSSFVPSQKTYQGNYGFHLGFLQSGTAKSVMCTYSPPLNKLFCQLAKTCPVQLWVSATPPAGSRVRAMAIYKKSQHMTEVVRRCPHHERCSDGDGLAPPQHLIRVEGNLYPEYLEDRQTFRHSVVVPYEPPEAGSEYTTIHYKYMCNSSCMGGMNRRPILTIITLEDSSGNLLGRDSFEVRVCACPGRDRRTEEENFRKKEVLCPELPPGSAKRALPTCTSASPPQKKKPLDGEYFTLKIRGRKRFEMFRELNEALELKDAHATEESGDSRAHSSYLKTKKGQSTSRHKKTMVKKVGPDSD

What was measured:
[1] = molecular target: DNA-dependent protein kinase catalytic subunit (mouse (endogenous in primary hepatocytes)) (UniProt P97313); assay: co-IP; endogenous proteins of primary hepatocytes; DNA-PKcs as bait; cells under normal conditions, with alcohol, or with alcohol and NR4A1 siRNA
[2] = molecular target: DNA-dependent protein kinase catalytic subunit (mouse (endogenous in primary hepatocytes)) (UniProt P97313); assay: co-IP; endogenous proteins of primary hepatocytes after exposure to alcohol stress; DNA-PKcs as bait

Row | Substance | binding [1] | binding [2]
1 | Ku80 (from UniProt P27641 1-732) | binds | binds weakly
2 | p53 (from UniProt P02340 1-390) | binds | –
